Source: paper PMC9106302
Results are given in words; binding and its absence hold for the method and conditions named. Binding seen in cells or lysates may run through a third protein. Binding can be weak; no strength is given. Where a sequence is shown, tags or fusion partners need not be part of it.

Protein sequences, listed by entry. Tags and fused reporters are not part of them. Lines headed by an entry give the natural chain unless they say otherwise; changes in a name come on top.
UniProt Q7K180: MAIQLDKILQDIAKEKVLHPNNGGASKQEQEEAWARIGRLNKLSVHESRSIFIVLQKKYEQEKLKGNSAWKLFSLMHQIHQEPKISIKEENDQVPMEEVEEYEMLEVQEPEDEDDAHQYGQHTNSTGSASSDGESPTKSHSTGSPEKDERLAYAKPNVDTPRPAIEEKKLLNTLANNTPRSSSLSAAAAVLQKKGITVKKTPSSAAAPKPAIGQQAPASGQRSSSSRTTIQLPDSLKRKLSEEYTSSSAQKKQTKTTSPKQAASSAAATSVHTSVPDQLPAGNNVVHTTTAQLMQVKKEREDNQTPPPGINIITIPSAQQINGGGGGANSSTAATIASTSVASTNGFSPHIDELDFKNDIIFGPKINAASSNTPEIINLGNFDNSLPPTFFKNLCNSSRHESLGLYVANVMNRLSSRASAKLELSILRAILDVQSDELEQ

What was measured:
Assay in all cases: pull-down; untagged Cp190 and/or Cp60 co-expressed with the GFP-tagged bait in E. coli Rosetta; clarified lysate (50 mM tris pH 7.5, 200 mM NaCl, 5% glycerol, 25 mM imidazole) on GFP-binder resin 1 hour at 4°C; SDS-PAGE and Coomassie staining
[1] = target: T1, GFP-tagged CTCF[610-818] (C terminus) (D. melanogaster) (UniProt Q9VS55)
T1 sequence: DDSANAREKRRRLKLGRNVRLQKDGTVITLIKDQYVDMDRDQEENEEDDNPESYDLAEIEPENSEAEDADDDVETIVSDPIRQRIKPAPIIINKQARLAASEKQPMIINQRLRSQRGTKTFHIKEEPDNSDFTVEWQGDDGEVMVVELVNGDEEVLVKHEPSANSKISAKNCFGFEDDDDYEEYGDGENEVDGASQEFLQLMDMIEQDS

[2] = target: T2, GFP-tagged Su(Hw)[724-941] (C terminus) (D. melanogaster) (UniProt P08970)
T2 sequence: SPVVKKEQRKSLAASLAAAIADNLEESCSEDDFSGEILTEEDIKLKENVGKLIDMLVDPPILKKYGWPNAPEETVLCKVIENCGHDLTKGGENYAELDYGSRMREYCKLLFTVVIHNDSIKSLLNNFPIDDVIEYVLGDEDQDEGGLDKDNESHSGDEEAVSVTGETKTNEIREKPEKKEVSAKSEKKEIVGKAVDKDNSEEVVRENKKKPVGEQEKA

[3] = target: T3, GFP-tagged Su(Hw)[1-219] (N terminus) (GFP-3C-bait-3C-His6) (D. melanogaster) (UniProt P08970)
T3 sequence: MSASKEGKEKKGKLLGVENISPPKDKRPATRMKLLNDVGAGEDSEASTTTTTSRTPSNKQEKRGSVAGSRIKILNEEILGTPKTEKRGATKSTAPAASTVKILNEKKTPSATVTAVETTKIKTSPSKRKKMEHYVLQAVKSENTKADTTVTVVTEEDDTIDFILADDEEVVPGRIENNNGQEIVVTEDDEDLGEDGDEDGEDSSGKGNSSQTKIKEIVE

[4] = target: T4, GFP-tagged Ibf2[1-195] (full length) (D. melanogaster) (UniProt Q9VHG6)
T4 sequence: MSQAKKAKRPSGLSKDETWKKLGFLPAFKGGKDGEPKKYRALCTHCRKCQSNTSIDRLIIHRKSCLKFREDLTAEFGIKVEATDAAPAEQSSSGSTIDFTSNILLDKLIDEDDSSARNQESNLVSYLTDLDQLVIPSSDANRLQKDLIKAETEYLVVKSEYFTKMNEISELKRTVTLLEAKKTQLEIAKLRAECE

[5] = target: T5, untagged full-length Cp190[1-1096], recombinant (D. melanogaster) (UniProt Q24478)
T5 sequence: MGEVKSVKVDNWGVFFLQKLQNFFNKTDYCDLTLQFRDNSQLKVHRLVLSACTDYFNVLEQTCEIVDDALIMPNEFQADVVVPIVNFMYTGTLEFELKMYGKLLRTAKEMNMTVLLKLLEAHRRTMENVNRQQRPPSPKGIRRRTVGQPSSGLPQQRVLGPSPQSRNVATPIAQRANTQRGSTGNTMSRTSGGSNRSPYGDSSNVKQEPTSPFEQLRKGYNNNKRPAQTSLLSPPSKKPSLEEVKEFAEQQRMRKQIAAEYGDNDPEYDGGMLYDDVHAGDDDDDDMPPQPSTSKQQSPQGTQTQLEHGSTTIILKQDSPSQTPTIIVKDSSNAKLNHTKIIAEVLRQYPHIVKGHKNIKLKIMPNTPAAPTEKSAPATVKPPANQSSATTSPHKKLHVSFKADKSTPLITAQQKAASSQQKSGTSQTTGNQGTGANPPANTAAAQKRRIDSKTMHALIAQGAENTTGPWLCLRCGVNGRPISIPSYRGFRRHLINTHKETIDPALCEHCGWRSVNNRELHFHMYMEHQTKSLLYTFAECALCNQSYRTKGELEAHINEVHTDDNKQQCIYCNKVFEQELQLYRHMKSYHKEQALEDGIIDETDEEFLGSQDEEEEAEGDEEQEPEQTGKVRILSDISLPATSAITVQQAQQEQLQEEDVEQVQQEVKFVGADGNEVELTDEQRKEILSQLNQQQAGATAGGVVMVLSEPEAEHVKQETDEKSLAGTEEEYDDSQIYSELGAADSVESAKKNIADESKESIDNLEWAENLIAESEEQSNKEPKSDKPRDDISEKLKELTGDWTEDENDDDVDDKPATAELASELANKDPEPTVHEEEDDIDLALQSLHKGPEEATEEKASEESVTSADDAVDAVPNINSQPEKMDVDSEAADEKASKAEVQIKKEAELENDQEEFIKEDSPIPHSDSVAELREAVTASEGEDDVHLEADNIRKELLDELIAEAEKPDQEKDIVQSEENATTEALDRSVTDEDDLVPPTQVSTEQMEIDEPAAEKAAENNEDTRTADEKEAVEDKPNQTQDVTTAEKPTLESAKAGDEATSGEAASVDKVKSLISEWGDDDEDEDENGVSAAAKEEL

[6] = target: T6, GFP-tagged Ibf1[1-242] (full length) (D. melanogaster) (UniProt Q9VHG5)
T6 sequence: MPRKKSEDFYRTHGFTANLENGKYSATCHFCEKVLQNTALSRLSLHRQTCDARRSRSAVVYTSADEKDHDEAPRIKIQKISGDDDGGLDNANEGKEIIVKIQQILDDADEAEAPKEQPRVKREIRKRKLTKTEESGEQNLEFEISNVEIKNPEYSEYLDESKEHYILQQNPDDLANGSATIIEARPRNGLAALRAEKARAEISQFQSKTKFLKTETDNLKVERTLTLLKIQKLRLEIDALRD

binding [1]: binds
binding [2]: binds
binding [3]: binds
binding [4]: binds
binding [5]: binds
binding [6]: binds
Substance: untagged Cp60[1-440], recombinant (from UniProt Q7K180)
